Measurements reported in PMC6162332.
These are yes or no findings as the source states them, for the method shown. In cells and extracts the contact can be indirect. Some results given as binding are weak or reduced against the parent protein; the word gives no strength. Sequences can lack the tags named with a protein.

Assays:
Assay in all cases: pull-down; GST or GST-Nlg1 proteins (0.64 nmol/200 µl) on glutathione magnetic beads in PBS pH 7.4, 0.01% BSA, 0.01% Tween-20; incubated 20 min at RT with COS-7 lysate containing gephyrin-Venus (200 µl/tube); eluted with glutathione; anti-gephyrin immunoblot; only the target purified
[1] = biological target: T1, GST-Nlg1-WT (GST fused to the intracellular domain of neuroligin-1) (mouse) (UniProt Q99K10)
T1 sequence: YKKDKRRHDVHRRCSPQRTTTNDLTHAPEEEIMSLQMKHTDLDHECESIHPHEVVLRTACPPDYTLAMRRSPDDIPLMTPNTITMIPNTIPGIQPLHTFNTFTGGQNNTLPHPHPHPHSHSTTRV

GST-Nlg1-Y782A (mouse) = biological target: T2, GST-Nlg1-Y782A (mouse) (UniProt Q99K10)
T2 sequence: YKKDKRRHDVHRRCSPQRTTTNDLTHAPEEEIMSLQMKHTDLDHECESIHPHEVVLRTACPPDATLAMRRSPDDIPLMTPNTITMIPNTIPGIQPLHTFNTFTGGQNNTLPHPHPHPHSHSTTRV

GST-Nlg1-Y782F (mouse) = biological target: T3, GST-Nlg1-Y782F (mouse) (UniProt Q99K10)
T3 sequence: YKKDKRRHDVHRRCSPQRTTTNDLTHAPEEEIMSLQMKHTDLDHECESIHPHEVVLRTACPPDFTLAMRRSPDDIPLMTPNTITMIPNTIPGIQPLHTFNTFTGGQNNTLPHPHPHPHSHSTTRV

B1: gephyrin-Venus (protein, UniProt Q03555 1-768)
chain: MATEGMILTNHDHQIRVGVLTVSDSCFRNLAEDRSGINLKDLVQDPSLLGGTISAYKIVPDEIEEIKETLIDWCDEKELNLILTTGGTGFAPRDVTPEKFPTFPFCGLQKGATKEVIEREAPGMALAMLMGSLNVTPLGMLSRPVCGIRGKTLIINLPGSKKGSQECFQFILPALPHAIDLLRDAIVKVKEVHDELEDLPSPPPPLSPPPTTSPHKQTEDKGVQCEEEEEEKKDSGVASTEDSSSSHITAAALAAKIPDSIISRGVQVLPRDTASLSTTPSESPRAQATSRLSTASCPTPKQIRRPDESKGVASRVGSLKVQSRCSSKENILRASHSAVDITKVARRHRMSPFPLTSMDKAFITVLEMTPVLGTEIINYRDGMGRVLAQDVYAKDNLPPFPASVKDGYAVRAADGPGDRFIIGESQAGEQPTQTVMPGQVMRVTTGAPIPCGADAVVQVEDTELIRESDDGTEELEVRILVQARPGQDIRPIGHDIKRGECVLAKGTHMGPSEIGLLATVGVTEVEVNKFPVVAVMSTGNELLNPEDDLLPGKIRDSNRSTLLATIQEHGYPTINLGIVGDNPDDLLNALNEGISRADVIITSGGVSMGEKDYLKQVLDIDLHAQIHFGRVFMKPGLPTTFATLDIDGVRKIIFALPGNPVSAVVTCNLFVVPALRKMQGILDPRPTIIKARLSCDVKLDPRPEYHRCILTWHHQEPLPWAQSTGNQMSSRLMSMRSANGLLMLPPKTEQYVELHKGEVVDVMVIGRL
With B1 the binding [1] was “binds”, the binding (GST-Nlg1-Y782A (mouse)) was “no binding” and the binding (GST-Nlg1-Y782F (mouse)) was “binds”.
